Laboratory results as given in the supplement of paper PMC3334620.
The full ranking holds about 33,000 sequences; the median of “E-score (-0.5 to 0.5)” is about -0.0014, and the highest 2% start at about 0.25. The list shows a part of the results.

target: T1, Cad1 (UniProt P24813); assay: PBM E-score (8-mer binding enrichment) (E-score (-0.5 to 0.5)); higher = stronger / more preferred TF binding; conditions: protein concentration: 100 nM; construct: GST-full length
T1 sequence: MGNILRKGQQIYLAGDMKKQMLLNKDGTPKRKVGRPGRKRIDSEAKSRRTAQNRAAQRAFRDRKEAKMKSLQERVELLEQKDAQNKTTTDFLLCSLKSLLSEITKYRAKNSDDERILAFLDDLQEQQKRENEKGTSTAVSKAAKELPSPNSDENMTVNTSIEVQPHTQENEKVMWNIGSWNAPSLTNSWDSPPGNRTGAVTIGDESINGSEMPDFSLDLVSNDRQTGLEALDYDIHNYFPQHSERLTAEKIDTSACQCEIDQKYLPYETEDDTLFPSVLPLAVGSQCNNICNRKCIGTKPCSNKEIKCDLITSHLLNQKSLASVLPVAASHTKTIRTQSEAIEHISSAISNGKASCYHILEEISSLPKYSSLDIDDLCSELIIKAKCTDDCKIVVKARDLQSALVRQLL
Description: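 Universal 'all 10-mer' protein binding microarrays (Agilent AMADID 015681) probed with GST-tagged S. cerevisiae TFs (full-length or DBD) made by in vitro transcription/translation (PURExpress), about 100-200 nM. Bound TF was detected with fluorescent anti-GST. Each ungapped 8-mer (which stands for itself and its reverse complement) is scored by the PBM enrichment score (E-score), a modified Wilcoxon-Mann-Whitney statistic from -0.5 to +0.5, computed with the Universal PBM Analysis Suite. Scale: above 0.35 generally sequence-specific binding.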

Sequence	PBM E-score
CCGTCCGA	-0.0947
ACACGTCC	0.0288
AGAGTATG	-0.0542
CCAATTTC	0.105
CGATACAG	0.0253
AAGATCGC	0.0452
CCGGGAAG	-0.0638
AAATCGCT	0.00908
CAGTAGCC	-0.252
CCGCCGAG	0.0731
ATCTTACG	-0.0441
AAGTTTGG	0.124
AATAGAGG	-0.154
ATTAACGA	0.178
CGACAACG	0.169
AACTGCGG	0.0204
GACAGACA	0.21
AACATGTC	0.00441
ACCGCAAA	0.14
ATTCGGGA	-0.0803
CCATCGTA	0.128
AATTCTTA	0.128
CCCGGGAA	-0.0141
CTGGAGGC	-0.0647
CTTTGCCA	-0.161

A second format for some results above:

| Sequence | PBM E-score |
| --- | --- |
| CCGCCGAG | 0.0731 |
| ATCTTACG | -0.0441 |
| AAGTTTGG | 0.124 |
| AATAGAGG | -0.154 |
| ATTAACGA | 0.178 |
| CGACAACG | 0.169 |

The list goes on:

Sequence	PBM E-score
AGTTTATC	0.0956
ATTGCGGC	-0.0914
ATTATCTG	0.154
CGAGAATA	0.128
ACACACAC	-0.0366
GGATTACA	0.0354
AGTGATAT	0.0284
CATCGGCA	0.0127
CATCTTGG	-0.192
CGAAGTAC	0.0229
GAAGGGGC	-0.26
TGAGAACA	0.24
AAACGCGA	0.0547
GTCGCGTA	0.127
ATCGCCAT	-0.0275
ATCCGCTC	-0.0674
ATTAAAAG	0.0637
ATAAAGAC	-0.0456
ACTTATAG	0.0372
AAGCGAGT	0.22
ATGGACAG	-0.148
ATATCTCC	0.0873
GTGAAGAA	0.0872
GGAAATCA	0.0778
CCCCAAAG	-0.144

Sequence	PBM E-score
GTCGAGAA	0.137
AGGTGCAA	-0.0504
AAGGCCAG	-0.17
AGCGTACT	-0.12
CTACCAAG	-0.0872
ATATGTTG	0.094
CAACGAAG	0.0215
AGACCAAT	0.155
AGGGCGGG	0.0757
TACTTGAA	0.0482
GCAGTACA	-0.0947
CCGGGAGG	-0.259
CAGAAGGC	0.0218
CGAAATGA	0.00552
CTGTTGGA	-0.0293
AGACAGAA	-0.0471
ATTGAGTA	0.142
ATTTCATG	-0.116
GATATGGC	-0.315
GGAGACTA	-0.23
AGGATGAC	0.0466
ATGGTCGA	0.0565
ACACGTGT	-0.0435
ACAGATGG	-0.127
CGGTATTA	0.101

Sequence	PBM E-score
GGAAGAGA	-0.0843
CCGCCAGC	-0.151
GAACGTCA	-0.0774
ATCATCGG	0.123
ACCCCCAC	-0.44
TAAGGGGA	-0.149
ATAACAAT	0.0624
ATTGACGC	0.0385
ACTTCGAA	0.084
AGAGTCAT	-0.221
AGCGTCAA	-0.0579
GCGCGTTA	0.147
CGTGGTCA	-0.092
AATATTAC	0.347
ACTCTGGC	-0.111
ATAAAATG	0.192
CAGTATCC	-0.0463
GAACCGAC	0.105
CGGATAAC	0.0736
GGGCGCAC	-0.163
CTCCCTAC	-0.26
ATATCGCA	-0.0511
AAGGACCA	-0.17
AGCGGGAT	-0.0726
CGCTTCCG	0.129

Sequence	PBM E-score
AACTAGGC	-0.133
AGCAAGAA	0.0592
AGTTCCCG	-0.0922
CAGCGATG	-0.0149
GAGTTGAC	-0.0116
GAGCCAAC	-0.164
ACCGGACT	-0.13
CAGTCCTA	-0.0337
GAAACCCC	-0.162
AGGGCTGC	-0.242
CATCAGAA	0.126
GGACACGA	-0.0804
GGGTTTGA	-0.00297
GTGTGTCA	0.217
ATTTCGGA	0.211
CGATCAAC	-0.0208
GCTATATA	0.149
CCCCGCTC	-0.358
ACGGTCCA	-0.0906
ATGAGATG	0.103
TACACTAA	0.147
ACATCACG	-0.073
ACCGCCCC	-0.00693
TAGCTGAA	0.0392
AGCTTAAG	0.156

Sequence	PBM E-score
ATGGCCTG	0.0685
AAAGAGCC	-0.142
CTTTGCTC	0.0584
GTCTGCAC	-0.196
GGTTAGAC	0.166
AACCTCGG	0.0695
CTGCTCGC	0.155
CTGGATAC	0.00912
CTCGCCTC	-0.185
CGCGCGGA	0.212
CTTAGAAA	0.209
CAGAGACC	-0.145
AATAGAAG	-0.0658
TAGCAGGA	-0.153
AAGTTCTG	0.0248
ATTCTGCC	0.0412
GGGCGAAA	0.0308
GTTTATCA	0.173
ACGCGTTA	0.167
ACGAGTTG	-0.0466
GGAATGCA	-0.0716
ATCACCGC	-0.0648
ACCGAGCA	0.00804
ACTCGCCA	0.0103
AGAGACTG	-0.269

Sequence	PBM E-score
AGTTAGAT	0.00473
AGGGGGAT	-0.359
GAATTTTA	0.16
ATGTGAGG	0.0824
ACTTGCCA	-0.0915
CTCATAGC	-0.238
ACTAGAAC	0.0619
GGTACATA	-0.0858
GATCGATA	0.132
ATTTATTC	0.159
ATTGGGTA	0.05
AATCGCAC	-0.0708
AACACGAT	0.123
CCACAGAA	-0.1
GAAAACGC	0.0255
GGCCCTTA	-0.189
ACGTAATA	0.311
CTACCCAG	-0.129
TAGCCTGA	-0.161
CCGCATCC	-0.143
ACAAAAGG	-0.0897
CTGAAGCA	-0.0415
